In US20230365651A1:

molecular target: HLA-B*07:02 (human); assay: UV peptide exchange, anti-b2m ELISA

binding, binds:
SPNKGTLSV [… (SEQ ID NO: 32)]
SPTFHLTL [SPTFHLTL (SEQ ID NO: 33)]
LPRGPLASLL [… (SEQ ID NO: 34)]
FPDNQRPAL [… (SEQ ID NO: 35)]
APAAWLRSA [… (SEQ ID NO: 36)]
RPLFQKSSM [… (SEQ ID NO: 37)]
SPHPVTALLTL [… (SEQ ID NO: 38)]
RPAPFEVVF [… (SEQ ID NO: 39)]
KPGTSYRVTL [… (SEQ ID NO: 40)]
RVRSRISNL [… (SEQ ID NO: 41)]
SPASRSISL [… (SEQ ID NO: 118)]
APLPRPGAVL [… (SEQ ID NO: 119)]
RPAMNYDKL [… (SEQ ID NO: 120)]
VPNQSSESL [… (SEQ ID NO: 121)]
YPGFPQSQY [… (SEQ ID NO: 122)]
KPSESIYSAL [… (SEQ ID NO: 123)]
LPSDSHFKITF [… (SEQ ID NO: 124)]
VPVYILLDEM [… (SEQ ID NO: 125)]
KPGPEDKL [KPGPEDKL (SEQ ID NO: 126)]
APRAGSQVV [… (SEQ ID NO: 127)]
YPRTITPGM [… (SEQ ID NO: 128)]
APRPASSL [APRPASSL (SEQ ID NO: 129)]
FPRLVGPDF [… (SEQ ID NO: 130)]
APTEDLKAL [… (SEQ ID NO: 131)]
IPGPAQSTI [… (SEQ ID NO: 132)]
MPNLPSTTSL [… (SEQ ID NO: 133)]
RPIVPGPLL [… (SEQ ID NO: 134)]
RVRSTISSL [… (SEQ ID NO: 135)]
SPFSAEEANSL [… (SEQ ID NO: 136)]
SPGATSRGTL [… (SEQ ID NO: 137)]
SPMATTSTL [… (SEQ ID NO: 138)]
SPQSMSNTL [… (SEQ ID NO: 139)]
SPRTEASSAVL [… (SEQ ID NO: 140)]
SPMTSLLTSGL [… (SEQ ID NO: 141)]
TPGLRETSI [… (SEQ ID NO: 142)]
SPAMTSTSF [… (SEQ ID NO: 143)]
SPSPVSSTL [… (SEQ ID NO: 144)]
SPSSPMSTF [… (SEQ ID NO: 145)]
IPRPEVQAL [… (SEQ ID NO: 146)]
APRWFPQPTVV [… (SEQ ID NO: 147)]
KPYGGSGPL [… (SEQ ID NO: 148)]
GPREALSRL [… (SEQ ID NO: 149)]
VPDSGATATAY [… (SEQ ID NO: 293)]
YPLRGSSIF [… (SEQ ID NO: 294)]
YPLRGSSIFGL [… (SEQ ID NO: 295)]
YPLRGSSI [YPLRGSSI (SEQ ID NO: 296)]
TVREASGLL [… (SEQ ID NO: 297)]
YPTEHVQF [YPTEHVQF (SEQ ID NO: 298)]
HPGSSALHY [… (SEQ ID NO: 299)]
IPMAAVKQAL [… (SEQ ID NO: 300)]
SPRRSPRISF [… (SEQ ID NO: 301)]
RVEEVRALL [… (SEQ ID NO: 302)]
LPMWKVTAF [… (SEQ ID NO: 303)]
LPRPGAVL [LPRPGAVL (SEQ ID NO: 304)]
TPWAESSTKF [… (SEQ ID NO: 305)]
APVIFSHSA [… (SEQ ID NO: 306)]
LPYGPGSEAAAF [… (SEQ ID NO: 307)]
FPQSQYPQY [… (SEQ ID NO: 309)]
RPLFYVVSL [… (SEQ ID NO: 311)]
LPYFREFSM [… (SEQ ID NO: 312)]
KVKSDRSVF [… (SEQ ID NO: 313)]
VPDQPHPEI [… (SEQ ID NO: 314)]
SPRENFPDTL [… (SEQ ID NO: 315)]
EPKTATVL [EPKTATVL (SEQ ID NO: 316)]
FPFQPGSV [FPFQPGSV (SEQ ID NO: 317)]
FPNRLNLEA [… (SEQ ID NO: 318)]
SPAEPSVYATL [… (SEQ ID NO: 319)]
FPMSPVTSV [… (SEQ ID NO: 320)]
SPMDTFLLI [… (SEQ ID NO: 321)]
SPDPSKHLL [… (SEQ ID NO: 322)]
RPMPNLRSV [… (SEQ ID NO: 323)]
VPYRVVGL [VPYRVVGL (SEQ ID NO: 324)]
GPRNAQRVL [… (SEQ ID NO: 325)]
VPSEIDAAF [… (SEQ ID NO: 326)]
SPLPVTSLI [… (SEQ ID NO: 327)]
EPVTSSLPNF [… (SEQ ID NO: 328)]
FPAMTESGGMIL [… (SEQ ID NO: 329)]

No constants are given. Whether binding was seen depends on the method and setting. Binding can be weak; no strength is given.
